Reference: article doi:10.1101/2023.07.04.547663

Target: His6 PfGEXP15 UD, shorter fragment (853-1266 bp) (Plasmodium falciparum) (UniProt Q8IJ89)
Test: affinity purification with mass spectrometry

exportin-7 (from UniProt C0H530)
binding: binds

Results are given in words; binding and its absence hold for the method and conditions named. In cells and extracts the contact can be indirect. These calls come from enrichment with a bait or labelling near it, and not all partners need be listed.
